Experimental data from US20090142753A1, “Compositions and methods for detecting compounds to treat a neurological disorder” (Caritas St. Elizeth Medical Center of Boston, Inc., priority 2005, published 2009).
For at least one compound, name, drawing or mass did not settle the structure. Some results were stated once for a whole list of compounds, not compound by compound.

What was measured:
[1] = tested on: human DJ-1 promoter; assay: DJ-1 luciferase assay in 96-well high throughput format; format: cell-based; conditions: 1000DJ-Luc SH-SY5Y cells, 96-well format, 5 μM, 24 hours, N=12
Protocol: FIG. 8 is a graph showing the results of a DJ-1 luciferase assay configured as a high throughput screen. Equal numbers of SH-SY5Y cells stably expressing the 1000DJ-Luc construct were plated in replicate (N=12) with 5 μM pergolide, bromocriptine or SAHA for 24 hours and then assayed for luciferase activity. The assay produced a Z′ value of 0.790 using SAHA as the positive and bromocriptine as the negative control.
The assay described above was carried out in a 96-well format. Twelve replicate samples of 1000DJ-Luc cells were each treated with pergolide or bromocriptine, which served as negative controls, or with SAHA, a compound known to increase DJ-1 expression. 5 μM of each compound was added to the cells in a 30 μl volume. Cells were lysed in 100 μl/well of passive lysis buffer, and 20 μl aliquots of the cell lysates were then used for a luciferase assay. Bromocriptine and pergolide are dopamine receptor agonists used for the treatment of motor symptoms in Parkinson's disease. […] In fact, levels of luciferase activity observed with these compounds were very similar to levels present in untreated control cells. […] A Z′ value was calculated using bromocriptine as the negative control. […] See “A Simple Statistical Parameter for Use in Evaluation and Validation of High Throughput Screening Assays” Zhang J H, Chung T D, Oldenburg K R, J Biomol Screen. 1999; 4(2):67-73.

[2] = tested on: human DJ-1 promoter; assay: DJ-1 promoter luciferase reporter assay in SH-SY5Y cells stably expressing −1000DJ-Luc; format: cell-based; conditions: 24 hours
Excerpt: To develop a cell-based assay system where one can identify agents that transcriptionally activate DJ-1, a plasmid vector (−1000DJ-Luc) was made that expressed a luciferase reporter gene directed by the human DJ-1 promoter containing 1000 base pairs upstream and 65 base pairs downstream sequences (−1000 to +65) of the transcription initiation site (FIG. 1). A19 base pair sequence containing +46 to +65 of the DJ-1 gene was fused to the luciferase gene to generate the control plasmid (0DJLuc). A neomycin resistance gene was inserted into the vectors as a selection marker. Next, human dopaminergic SH-SY5Y neuroblastoma cells were transfected with either −1000DJLuc or 0DJLuc selected for stably transfected clones. A plasmid encoding β-galactosidase gene was co-transfected to serve as an internal control for luciferase expression.
To confirm the stable expression of the reporter genes and to evaluate these cells as devices for drug discovery, stably transfected SH-SY5Y cells were treated with increasing doses of H2O2. This agent has been reported to upregulate DJ-1. See for example Reference 21. […] Luciferase and β-galactosidase activities were then determined. […]
SH-SY5Y cells stably expressing −1000DJ-Luc were treated with increasing doses of TSA (FIG. 3A) or sodium butyrate (FIG. 3B) for 24 hours. Results were analyzed as described in FIG. 2. […]

Question: Which Luciferase activity [1] does the source give for `CC(C)C[C@H]1C(=O)N2CCC[C@H]2[C@]2(O)O[C@](NC(=O)[C@@H]3C=C4c5cccc6[nH]c(Br)c(c56)C[C@H]4N(C)C3)(C(C)C)C(=O)N12` [bromocriptine] here?
Answer: The Luciferase activity was “little luciferase activity”.

Question: How did the “Luciferase activity in 1000DJ-Luc cells versus 0DJ-Luc control cells (raw data)” value ([2]; 100 ng/ml) turn out when `CC(/C=C/C(=O)NO)=C\[C@@H](C)C(=O)c1ccc(N(C)C)cc1` [TSA, Trichostatin A] was run?
Answer: The value was over 100 times.

Question: How did the “Luciferase activity in 1000DJ-Luc cells versus 0DJ-Luc control cells (raw data)” value ([2]; 5 μM) turn out when `O=C(CCCCCCC(=O)Nc1ccccc1)NO` [SAHA, suberoylanilide hydroxamic acid] was run?
Answer: Its value is over 100 times.
